This note sets out measurements from PMC8439649.

Sequences of proteins named here, by UniProt entry; tags and fusion partners are left off. Residues count along the entry.
UniProt Q8TB45, residues 1-230: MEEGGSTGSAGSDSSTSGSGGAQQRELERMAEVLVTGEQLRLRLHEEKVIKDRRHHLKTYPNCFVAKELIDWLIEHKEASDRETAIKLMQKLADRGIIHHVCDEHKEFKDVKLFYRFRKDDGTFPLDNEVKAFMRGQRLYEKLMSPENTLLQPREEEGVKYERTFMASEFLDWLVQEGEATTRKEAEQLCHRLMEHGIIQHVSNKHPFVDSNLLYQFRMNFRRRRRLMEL

These are yes or no findings as the source states them, for the method shown.

The assay concerns the target DEPTOR DEP domain tandem (DEPt), residues 1-230 (human) (UniProt Q8TB45). The experiment in a line: SAXS; purified DEPt in gel filtration buffer at 2–14 mg/ml, batch mode; scattering fitted with crystal monomer, crystal dimer and cryo-EM models (CRYSOL); both purified. Background: SEC sorts molecules by how far they enter the pores of the column.

“DEPTOR DEP domain tandem (DEPt), residues 1-230 (from UniProt Q8TB45 1-230) (domain or fragment)”: the binding result is on record as “no binding (tested: 2–14 mg/ml)”.
